## Percent effect of library compounds

By UniProt entry, the sequences of proteins in these tests, tags left out. Residues count along the entry.
UniProt P9WPC5, whole entry: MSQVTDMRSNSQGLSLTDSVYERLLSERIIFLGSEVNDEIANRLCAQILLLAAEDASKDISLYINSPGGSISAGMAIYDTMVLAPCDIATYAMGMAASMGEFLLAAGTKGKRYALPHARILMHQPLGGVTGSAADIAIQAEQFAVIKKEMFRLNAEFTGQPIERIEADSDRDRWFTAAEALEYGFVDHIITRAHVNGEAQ
UniProt P9WPC3, whole entry partner: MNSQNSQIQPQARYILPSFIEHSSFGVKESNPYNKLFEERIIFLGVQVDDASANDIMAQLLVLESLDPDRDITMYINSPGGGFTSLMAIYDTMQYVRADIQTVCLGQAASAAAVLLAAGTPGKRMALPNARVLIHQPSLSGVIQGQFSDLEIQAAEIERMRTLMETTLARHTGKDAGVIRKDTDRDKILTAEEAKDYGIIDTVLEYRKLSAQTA
UniProt Q4DA54, 1-478: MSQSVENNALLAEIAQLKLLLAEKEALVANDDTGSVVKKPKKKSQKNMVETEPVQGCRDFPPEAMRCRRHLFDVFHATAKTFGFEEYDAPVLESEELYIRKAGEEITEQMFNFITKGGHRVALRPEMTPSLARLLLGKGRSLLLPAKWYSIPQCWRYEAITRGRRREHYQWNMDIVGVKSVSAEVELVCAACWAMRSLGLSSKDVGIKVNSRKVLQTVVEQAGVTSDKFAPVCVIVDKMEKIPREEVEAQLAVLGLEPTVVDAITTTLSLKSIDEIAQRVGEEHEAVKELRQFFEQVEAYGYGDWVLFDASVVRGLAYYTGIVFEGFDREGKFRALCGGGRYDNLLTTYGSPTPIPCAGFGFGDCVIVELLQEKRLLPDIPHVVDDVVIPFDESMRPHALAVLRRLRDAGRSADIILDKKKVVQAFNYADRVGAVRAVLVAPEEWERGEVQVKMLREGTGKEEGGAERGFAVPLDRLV
UniProt Q8IDJ8, 1-583: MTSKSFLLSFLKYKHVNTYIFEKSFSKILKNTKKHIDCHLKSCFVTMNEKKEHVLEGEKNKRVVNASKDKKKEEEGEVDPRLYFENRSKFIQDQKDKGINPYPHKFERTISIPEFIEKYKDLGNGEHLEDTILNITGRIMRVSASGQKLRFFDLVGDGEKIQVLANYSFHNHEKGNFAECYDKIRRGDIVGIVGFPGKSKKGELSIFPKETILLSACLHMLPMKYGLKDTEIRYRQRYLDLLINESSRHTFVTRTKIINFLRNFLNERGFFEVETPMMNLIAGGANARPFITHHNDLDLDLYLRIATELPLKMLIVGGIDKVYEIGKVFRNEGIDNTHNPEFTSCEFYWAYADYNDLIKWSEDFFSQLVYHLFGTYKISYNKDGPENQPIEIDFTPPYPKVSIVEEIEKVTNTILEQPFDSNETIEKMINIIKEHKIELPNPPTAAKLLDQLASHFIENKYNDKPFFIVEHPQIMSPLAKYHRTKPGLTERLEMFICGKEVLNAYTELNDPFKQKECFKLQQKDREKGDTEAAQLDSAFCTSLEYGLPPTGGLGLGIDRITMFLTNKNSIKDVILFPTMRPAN
UniProt I6X8D2, whole entry: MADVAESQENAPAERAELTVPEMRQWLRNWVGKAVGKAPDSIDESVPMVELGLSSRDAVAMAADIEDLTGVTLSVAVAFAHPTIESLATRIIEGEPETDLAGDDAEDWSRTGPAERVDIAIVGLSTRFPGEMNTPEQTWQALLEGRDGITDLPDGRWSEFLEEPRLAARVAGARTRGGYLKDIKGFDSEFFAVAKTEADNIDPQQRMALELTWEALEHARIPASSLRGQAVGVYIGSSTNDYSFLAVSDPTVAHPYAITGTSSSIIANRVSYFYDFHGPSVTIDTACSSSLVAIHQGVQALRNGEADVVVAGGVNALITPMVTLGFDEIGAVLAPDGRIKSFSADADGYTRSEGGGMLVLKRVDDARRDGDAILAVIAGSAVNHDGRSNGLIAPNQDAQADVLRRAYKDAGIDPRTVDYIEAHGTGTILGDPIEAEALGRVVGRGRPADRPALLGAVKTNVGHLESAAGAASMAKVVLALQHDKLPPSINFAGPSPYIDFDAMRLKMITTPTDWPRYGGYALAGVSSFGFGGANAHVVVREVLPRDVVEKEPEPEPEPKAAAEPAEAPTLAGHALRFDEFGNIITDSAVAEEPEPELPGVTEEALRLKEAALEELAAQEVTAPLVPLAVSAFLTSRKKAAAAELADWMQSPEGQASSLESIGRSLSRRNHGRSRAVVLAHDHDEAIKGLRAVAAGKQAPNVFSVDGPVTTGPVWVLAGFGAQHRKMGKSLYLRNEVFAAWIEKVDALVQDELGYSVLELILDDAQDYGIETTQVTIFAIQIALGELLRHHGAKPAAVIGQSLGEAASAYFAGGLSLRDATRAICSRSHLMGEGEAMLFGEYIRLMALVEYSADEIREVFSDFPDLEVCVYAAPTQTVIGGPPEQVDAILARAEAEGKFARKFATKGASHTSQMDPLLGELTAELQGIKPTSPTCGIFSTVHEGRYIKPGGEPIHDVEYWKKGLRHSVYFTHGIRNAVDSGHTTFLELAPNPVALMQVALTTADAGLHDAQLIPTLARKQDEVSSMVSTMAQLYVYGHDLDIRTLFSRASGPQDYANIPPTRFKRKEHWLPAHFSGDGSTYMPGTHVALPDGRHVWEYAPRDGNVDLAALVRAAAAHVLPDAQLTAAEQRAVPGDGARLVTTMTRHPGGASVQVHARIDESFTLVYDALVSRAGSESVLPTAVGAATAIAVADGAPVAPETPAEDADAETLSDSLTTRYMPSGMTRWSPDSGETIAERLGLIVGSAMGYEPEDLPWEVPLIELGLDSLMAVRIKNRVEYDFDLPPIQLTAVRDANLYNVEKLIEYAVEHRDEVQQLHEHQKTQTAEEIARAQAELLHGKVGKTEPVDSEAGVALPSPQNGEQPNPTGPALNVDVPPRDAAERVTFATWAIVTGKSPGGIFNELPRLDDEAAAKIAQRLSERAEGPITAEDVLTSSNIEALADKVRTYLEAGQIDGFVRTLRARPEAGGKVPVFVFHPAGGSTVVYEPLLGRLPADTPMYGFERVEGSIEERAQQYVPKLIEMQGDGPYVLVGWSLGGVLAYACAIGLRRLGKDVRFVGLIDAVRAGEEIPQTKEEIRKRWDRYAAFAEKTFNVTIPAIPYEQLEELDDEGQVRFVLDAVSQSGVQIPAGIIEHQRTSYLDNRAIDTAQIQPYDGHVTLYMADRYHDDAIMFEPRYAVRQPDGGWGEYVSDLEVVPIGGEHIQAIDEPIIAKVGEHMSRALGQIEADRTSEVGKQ

ClpP1P2: 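ClpP1P2, Mycobacterium tuberculosis (UniProt P9WPC5 and UniProt P9WPC3). Protease assay of ClpP1P2, read by the AMC dye that it sets free. Tested at 50 µM. Direction is inferred from only a few compounds that gave an IC50; most scored high, so higher reads as stronger inhibition. Most other retested compounds had strongly negative values. Size under these conditions: about 69,000 compounds, about 10 of them at 50% or above in at least one test.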
TcHisRS: 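Enzyme assay of histidyl-tRNA synthetase; the read-out is not stated. Target: Histidine-tRNA ligase, Trypanosoma cruzi CL Brener (UniProt Q4DA54). Tested at 30 µM. Direction is inferred from retests: higher values go with stronger inhibition. About 69,000 compounds were tested under these conditions; 0.045% (about 31) showed 50% or more at least once.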
PfKRS1: 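Enzyme assay of the cytosolic lysyl-tRNA synthetase in 384-well plates, read by luminescence. Target: Lysine-tRNA ligase, Plasmodium falciparum 3D7 (UniProt Q8IDJ8). Concentration: 30 µM. Higher reads as stronger inhibition, judged from the few compounds that gave an IC50. Size under these conditions: about 69,000 compounds, about 49 of them at 50% or above in at least one test.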
Pks13 thioesterase: 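Enzyme assay of the thioesterase domain of polyketide synthase 13; the read-out is not stated. Target: Polyketide synthase Pks13, Mycobacterium tuberculosis (UniProt I6X8D2). Tested at 30 µM. Higher reads as stronger inhibition (inferred from which compounds were picked for retests). Size under these conditions: about 67,000 compounds, about 300 of them at 50% or above in at least one test.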

The filed quantity is “Percent Effect” (%). How 0% and 100% were set is not recorded. Most values in the screen are low, and negative values occur. This is an unselected part of the compounds tested. A dash means the value is not listed here; it may have been measured.

structure	ClpP1P2	TcHisRS	PfKRS1	Pks13 thioesterase
COc1ccc(C(CO)NC(=O)Nc2cccc(C#N)c2)cc1 (stereo unspecified)	-6.382	-2.5	-0.6013	-9.448
CC(C#N)(NC(=O)Cn1cc(I)cn1)C1CC1 (stereo unspecified)	-5.181	-0.578	3.14	14.56
O=C1CC[C@H](C(=O)N(Cc2cccc(Br)c2)C2CC2)N1	-6.173	1.948	7.244	-18.08
CC(C)CCN1CCNC(=O)C1CC(=O)NCCc1cc(O)ncn1 (stereo unspecified)	-3.716	2.591	4.414	-14.62
CS(=O)(=O)NC1CCN(CCOCc2ccccc2)CC1	-3.592	5.844	0.6994	-8.567
CCC1(CC)CC(=O)N(CC(O)c2cccc(Br)c2)C1=O (stereo unspecified)	8.153	4.348	-4.076	-10.44
O=C(c1cc[nH]n1)N(Cc1ccc(F)cc1)CC1CC1	-2.111	0	6.737	-5.715
O[C@@H]1CN(Cc2cccc(F)c2)CC[C@H]1NCc1ccccn1	-4.073	-0.7576	3.934	-31.82
CCOc1ccc(NC(=O)Nc2cc(N3CCCCC3)ncn2)cc1	-4.77	10.31	-0.8488	-29.36
Cc1cscc1-c1nc(C2CCOC2)no1 (stereo unspecified)	-3.167	5.319	6.012	-18.65
Cc1nonc1CN(C)c1nc(-c2cccnc2)nc2c1CCNC2	-0.5848	20.86	1.3	-15.21
CCOc1ccccc1-n1c(-c2cn(CC)nc2C)n[nH]c1=O	0.04726	1.064	5.404	-6.822
COCCC(=O)N1CCC(c2nnc(-c3ccsc3)o2)CC1	5.26	1.13	2.284	-12.42
CCOc1ncccc1C(=O)N1CCCC1c1c(C)nn(C)c1OC (stereo unspecified)	-2.515	3.422	6.646	-1.736
Cc1cccc(NC(=O)c2ccc(OCc3nnnn3C)cc2)n1	34.72	11.88	-3.944	25.1
CCc1cnc(CN(C(C)=O)C2CCN(CCc3cnn(C)c3)C2)o1 (stereo unspecified)	11.68	-0.7576	7.493	-11.08
CN(C)c1cc2c(nn1)CCN(C(=O)c1ccc(-n3cccn3)nc1)C2	1.835	5.473	-3.117	-7.048
CCN(CC)c1ncc(S(=O)(=O)c2cccc(C)c2)c(N)n1	14.74	1.031	-2.708	-6.002
CCc1nc(CN2CCN(c3ncnc4cc(F)ccc34)CC2)no1	-14.89	5.858	-5.034	1.736
COc1cc(CCC(=O)N2CCC(c3cc4ncccc4[nH]3)CC2)on1	-6.102	-15.91	2.151	-1.195
Cc1ncc(CN(C)CC(O)c2cccc(C(F)(F)F)c2)s1 (stereo unspecified)	13.11	-1.02	-2.831	-7.187
COc1cc(N2CCC(c3nccn3Cc3cccnc3)CC2)ncn1	-5.633	3.279	5.58	-23.86
O=c1[nH]nc2n1CCN(S(=O)(=O)c1ccccc1Cl)C2	-20.68	2.941	4.847	-
Cc1ccccc1NS(=O)(=O)c1ccc(C(=O)O)cc1F	-1.737	2.809	1.479	8.72
Cc1cc(C2CCCN(CCC(=O)N3CCc4ccccc43)C2)n[nH]1 (stereo unspecified)	-4.456	6.077	-1.297	-44.18
CN(c1nc(Cn2cnccc2=O)cs1)C1CC1	-1.772	21.28	0.05555	-24.9
CN(CC(C)(C)O)C1CCCN(Cc2noc(C3CC3)n2)C1 (stereo unspecified)	23.46	1.156	-4.286	-13.72
CCOCC(=O)Nc1cc(C)cnc1OC	0.7246	3.03	3.784	-25.16
O=C(N[C@@H]1CN(CC2CC2)[C@@H]2CCCO[C@@H]21)c1cscn1	2.431	6.349	3.808	-6.255
CC(CN1CCOCC1)n1cncc1-c1ccc2c(c1)CCCN2C (stereo unspecified)	-6.846	4.651	2.432	1.247
O=C(CC1CCCC1)N1CCCC(c2n[nH]c3nccnc23)C1 (stereo unspecified)	-5.787	1.622	7.257	-23.22
CCn1cc(CN2CCCN(C(=O)CCN3CCCC3=O)CC2)cn1	9.124	3.448	0.006736	-18.32
CCc1nnsc1C(=O)N1CCOC(c2nc(C)n[nH]2)C1 (stereo unspecified)	-1.913	1.128	6.968	-9.243
CCc1nnc2n1CC(CNCc1ccncc1)CC2 (stereo unspecified)	-3.846	8.943	6.227	-8.867
Cc1cc(-c2cccc3c2CCNC3)cnc1-n1cnnc1	-10.08	1.63	4.038	-40
O=C(NCC1CCOC1)c1csc(-c2ccc(Cl)cc2)n1 (stereo unspecified)	-3.076	4.023	-0.3436	28.98
CC(=O)NCCCNCc1ccc(Cl)c2cccnc12	-4.11	4.255	0.1222	-18.01
NC(=O)CCn1cc(CNCCCc2ccncc2)c2ccccc21	5.006	7.447	2.465	-21.39
O=C(NC1CCc2nccn2C1)c1ccc(NC2CC2)nc1 (stereo unspecified)	3.396	3.448	2.877	-14.03
CC[C@@H]1N(Cc2ccoc2)CCC[C@]12CCC(=O)N2CCOC	-14.95	6.542	-1.945	-13.55
COc1ccc(-c2n[nH]cc2CN(C)Cc2nnc(C)o2)c(F)c1	-9.627	3.191	4.833	-26.74
COCCC1(C(=O)O)CCN(c2cc(C)c3ccccc3n2)CC1	-5.003	5.455	4.121	5.326
CN(C)CCN(C)C[C@@H]1CN(Cc2cccc(O)c2)C[C@@H]1CO	-4.763	4.831	2.344	20.49
O=C(CCC1CCCCO1)NCc1cnn(-c2ccc(F)cc2F)c1 (stereo unspecified)	-10.03	4.211	-4.576	-6.698
CC(C)(C)CC(=O)N1CCc2sccc2C1	9.571	3.448	4.84	-25.02
Cc1cc(NC(=O)N(C)CCN2CCN(c3ccccc3)CC2)on1	-2.3	3.941	8.471	-110.5
O=C(NC[C@]12COC[C@H]1CN(Cc1cccnc1)C2)c1ccno1	6.44	6.011	-1.442	-28.92
CC(=O)N1CC[C@@]2(C(=O)Nc3ccccc3)CCN(S(C)(=O)=O)CC[C@@H]12	-0.9118	-4.878	5.582	9.523
Cc1ccc2c(c1)CCCN2C(=O)c1cncc(Br)c1	-5.494	7.407	3.375	-4.097
CC1CCc2nc(O)c(C(=O)NCc3ccncc3)cc2C1 (stereo unspecified)	1.903	3.409	0.2264	12.58
CS(=O)(=O)CCC(=O)NC(c1ccc(F)cc1)C(F)(F)F (stereo unspecified)	-2.85	0.5128	3.55	-7.851
Cc1csc(C2CCCCN2C(=O)CCCn2cccn2)n1 (stereo unspecified)	4.261	5.195	4.145	-17.15
O=C(CC1CCCO1)Nc1cccc(N2CCN(CC3CC3)CC2)c1 (stereo unspecified)	1.962	12.7	2.159	-13.22
O=C(c1ccc2[nH]cnc2c1)N1CCC(Oc2ccccn2)CC1	-1.567	1.587	-0.4372	-7.204
CC(=O)Nc1cc(CCC2CCN(C(=O)c3ccccn3)CC2)ccn1	-1.021	9.091	0.2134	-1.424
CCc1cnc(CCNC(C)CC(=O)Nc2cccc(C)c2C)s1 (stereo unspecified)	-5.167	6.667	2.783	-12.43
CC(=O)N1CCN(c2cc(N(C)C)cnn2)CC1	-7.079	2.062	4.063	-8.396
Cc1ccnc(N2CCCC(c3nncn3C3CC3)C2)n1 (stereo unspecified)	-9.889	7.182	0.7744	-25.73
CN1CCN(c2ccc(Br)cc2NC(=O)c2ccco2)CC1	-6.594	3.017	1.884	-16.67
Cn1cc(C2CCCN2CCC(=O)N2CCc3sccc3C2)cn1 (stereo unspecified)	-19.17	12.5	2.59	-3.319

The first 4 entries again:

* COc1ccc(C(CO)NC(=O)Nc2cccc(C#N)c2)cc1 (stereo unspecified) : ClpP1P2: -6.382%; TcHisRS: -2.5%; PfKRS1: -0.6013%; Pks13 thioesterase: -9.448%
* CC(C#N)(NC(=O)Cn1cc(I)cn1)C1CC1 (stereo unspecified) : ClpP1P2: -5.181%; TcHisRS: -0.578%; PfKRS1: 3.14%; Pks13 thioesterase: 14.56%
* O=C1CC[C@H](C(=O)N(Cc2cccc(Br)c2)C2CC2)N1 : ClpP1P2: -6.173%; TcHisRS: 1.948%; PfKRS1: 7.244%; Pks13 thioesterase: -18.08%
* CC(C)CCN1CCNC(=O)C1CC(=O)NCCc1cc(O)ncn1 (stereo unspecified) : ClpP1P2: -3.716%; TcHisRS: 2.591%; PfKRS1: 4.414%; Pks13 thioesterase: -14.62%

From ChEMBL document CHEMBL3988442, “University of Dundee, Small-Polar-MMV Screening Library” (2021).